The supplement of paper PMC6411743
± gives the standard deviation of the averaged measurements. Only a part is listed here, and it is no random draw.

What was measured:
Test in all cases: NP40-soluble protein abundance relative to vehicle (solubility fold change) (ratio); higher = more soluble protein in presence of ATP
ACAD9 = target: T1, ACAD9 (UniProt Q9H845)
T1 sequence (whole entry): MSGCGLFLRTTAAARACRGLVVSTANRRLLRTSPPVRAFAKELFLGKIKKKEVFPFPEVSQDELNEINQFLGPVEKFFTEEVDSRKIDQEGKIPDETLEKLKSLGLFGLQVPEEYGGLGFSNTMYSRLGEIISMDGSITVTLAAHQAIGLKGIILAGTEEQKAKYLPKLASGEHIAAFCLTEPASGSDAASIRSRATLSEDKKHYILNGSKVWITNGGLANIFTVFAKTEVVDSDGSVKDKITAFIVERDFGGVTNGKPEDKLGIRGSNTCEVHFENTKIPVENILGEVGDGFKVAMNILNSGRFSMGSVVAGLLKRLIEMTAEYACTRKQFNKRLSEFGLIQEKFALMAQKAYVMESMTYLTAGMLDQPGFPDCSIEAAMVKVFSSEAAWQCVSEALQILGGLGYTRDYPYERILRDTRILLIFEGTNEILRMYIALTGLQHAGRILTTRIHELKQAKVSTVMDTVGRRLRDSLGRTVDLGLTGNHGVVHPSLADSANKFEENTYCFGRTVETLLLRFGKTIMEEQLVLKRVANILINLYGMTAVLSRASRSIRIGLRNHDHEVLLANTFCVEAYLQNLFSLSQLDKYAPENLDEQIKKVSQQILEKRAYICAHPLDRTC
Summary of the method: (§1)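 In three independent experiments, Jurkat crude lysate made by Dounce homogenisation was treated for 10 min at room temperature and then 3 min at 37 °C with eight concentrations ranging from 0.1 to 10 mM. It was then solubilised with 0.8% NP40 plus benzonase for 60 min at 4 °C and ultracentrifuged. The supernatant was TMT-labelled for LC-MS/MS, and each value is the fold change against the detergent-processed vehicle for the same replicate, using vsn-normalised intensities.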

CSTF2T = target: T2, CSTF2T (UniProt Q9H0L4)
T2 sequence (whole entry): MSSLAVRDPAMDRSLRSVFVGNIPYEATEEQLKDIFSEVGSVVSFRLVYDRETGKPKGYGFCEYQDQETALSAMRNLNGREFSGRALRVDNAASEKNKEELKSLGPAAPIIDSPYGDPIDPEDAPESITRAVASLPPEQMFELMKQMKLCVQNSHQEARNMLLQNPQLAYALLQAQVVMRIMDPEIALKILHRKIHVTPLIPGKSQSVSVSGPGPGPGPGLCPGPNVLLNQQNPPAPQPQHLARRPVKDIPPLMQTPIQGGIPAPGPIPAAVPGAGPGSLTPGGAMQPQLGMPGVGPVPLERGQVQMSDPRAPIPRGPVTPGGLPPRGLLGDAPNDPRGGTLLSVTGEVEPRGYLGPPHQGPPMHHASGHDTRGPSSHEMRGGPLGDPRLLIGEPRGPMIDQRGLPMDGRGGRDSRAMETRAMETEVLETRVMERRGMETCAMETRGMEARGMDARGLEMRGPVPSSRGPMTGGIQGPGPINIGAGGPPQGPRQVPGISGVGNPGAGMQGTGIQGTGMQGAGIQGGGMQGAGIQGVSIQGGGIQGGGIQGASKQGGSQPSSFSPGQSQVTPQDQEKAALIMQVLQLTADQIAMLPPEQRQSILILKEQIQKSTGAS
Summary of the method: as §1

DNTTIP1 = target: T3, DNTTIP1 (UniProt Q9H147)
T3 sequence (whole entry): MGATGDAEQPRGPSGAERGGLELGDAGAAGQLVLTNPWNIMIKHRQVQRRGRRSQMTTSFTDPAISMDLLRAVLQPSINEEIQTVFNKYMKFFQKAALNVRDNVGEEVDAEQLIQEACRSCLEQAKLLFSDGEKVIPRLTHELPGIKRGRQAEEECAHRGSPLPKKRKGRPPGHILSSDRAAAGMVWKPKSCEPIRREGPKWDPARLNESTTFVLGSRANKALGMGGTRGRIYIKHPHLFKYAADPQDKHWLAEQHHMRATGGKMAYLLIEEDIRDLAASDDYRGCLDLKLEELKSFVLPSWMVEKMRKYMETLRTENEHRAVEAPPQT
Summary of the method: as §1

PLEKHF2 = target: T4, PLEKHF2 (UniProt Q9H8W4)
T4 sequence (whole entry): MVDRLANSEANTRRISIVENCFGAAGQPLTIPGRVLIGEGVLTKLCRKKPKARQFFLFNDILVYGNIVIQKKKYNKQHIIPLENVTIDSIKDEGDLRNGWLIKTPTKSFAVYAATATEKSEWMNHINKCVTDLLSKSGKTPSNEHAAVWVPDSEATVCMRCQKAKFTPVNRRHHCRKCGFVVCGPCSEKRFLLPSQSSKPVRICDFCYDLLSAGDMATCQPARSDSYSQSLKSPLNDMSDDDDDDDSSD
Summary of the method: as §1

PREB = target: T5, PREB (UniProt Q9HCU5)
T5 sequence (whole entry): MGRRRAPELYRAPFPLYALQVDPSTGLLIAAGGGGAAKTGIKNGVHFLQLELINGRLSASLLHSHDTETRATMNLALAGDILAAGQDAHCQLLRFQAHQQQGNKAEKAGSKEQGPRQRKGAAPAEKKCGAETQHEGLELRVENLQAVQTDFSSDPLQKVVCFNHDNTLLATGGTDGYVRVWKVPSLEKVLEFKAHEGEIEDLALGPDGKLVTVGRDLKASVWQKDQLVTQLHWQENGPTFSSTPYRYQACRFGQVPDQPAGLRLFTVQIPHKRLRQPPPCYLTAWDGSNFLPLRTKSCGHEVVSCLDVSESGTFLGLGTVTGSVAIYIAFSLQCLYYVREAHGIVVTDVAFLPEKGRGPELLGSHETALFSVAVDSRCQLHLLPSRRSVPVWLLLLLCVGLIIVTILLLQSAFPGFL
Summary of the method: as §1

Nc1ncnc2c1ncn2[C@@H]1O[C@H](COP(=O)(O)OP(=O)(O)OP(=O)(O)O)[C@@H](O)[C@H]1O [adenosine triphosphate]
NP40-soluble protein abundance (ACAD9; concentration: 1mM): 1.01 ± 0.078
NP40-soluble protein abundance (ACAD9; concentration: 2mM): 0.988 ± 0.053
NP40-soluble protein abundance (ACAD9; concentration: 4mM): 0.969 ± 0.031
NP40-soluble protein abundance (ACAD9; concentration: 6mM): 0.95 ± 0.081
NP40-soluble protein abundance (ACAD9; concentration: 8mM): 0.987 ± 0.026
NP40-soluble protein abundance (ACAD9; concentration: 10mM): 0.968 ± 0.044
NP40-soluble protein abundance (CSTF2T; concentration: 1mM): 1.02 ± 0.06
NP40-soluble protein abundance (CSTF2T; concentration: 2mM): 1.02 ± 0.053
NP40-soluble protein abundance (CSTF2T; concentration: 4mM): 1.03 ± 0.024
NP40-soluble protein abundance (CSTF2T; concentration: 6mM): 1.09 ± 0.025
NP40-soluble protein abundance (CSTF2T; concentration: 8mM): 1.05 ± 0.014
NP40-soluble protein abundance (CSTF2T; concentration: 10mM): 1.06 ± 0.017
NP40-soluble protein abundance (DNTTIP1; concentration: 1mM): 1.08 ± 0.024
NP40-soluble protein abundance (DNTTIP1; concentration: 2mM): 1.05 ± 0.028
NP40-soluble protein abundance (DNTTIP1; concentration: 4mM): 1.06 ± 0.015
NP40-soluble protein abundance (DNTTIP1; concentration: 6mM): 1.05 ± 0.029
NP40-soluble protein abundance (DNTTIP1; concentration: 8mM): 1.06 ± 0.051
NP40-soluble protein abundance (DNTTIP1; concentration: 10mM): 1.07 ± 0.018
NP40-soluble protein abundance (PLEKHF2; concentration: 1mM): 0.94 ± 0.031
NP40-soluble protein abundance (PLEKHF2; concentration: 2mM): 0.958 ± 0.027
NP40-soluble protein abundance (PLEKHF2; concentration: 4mM): 0.9318 ± 0.0048
NP40-soluble protein abundance (PLEKHF2; concentration: 6mM): 0.941 ± 0.024
NP40-soluble protein abundance (PLEKHF2; concentration: 8mM): 0.909 ± 0.023
NP40-soluble protein abundance (PLEKHF2; concentration: 10mM): 0.9057 ± 0.0078
NP40-soluble protein abundance (PREB; concentration: 1mM): 1.03 ± 0.053
NP40-soluble protein abundance (PREB; concentration: 2mM): 1.02 ± 0.042
NP40-soluble protein abundance (PREB; concentration: 4mM): 1.02 ± 0.062
